According to article PMC9577226, “In vitro selection and optimization of high-affinity aptamer for milk allergen α-lactalbumin and its application in dual-mode detection”:
The comparison behind a weaker result is the experiment's own reference, which may not be listed here. Tags and fusion partners may be left off the protein sequences shown.

Target: T1, alpha-lactalbumin (α-La) (Bos taurus (bovine milk)) (UniProt P00711)
T1 sequence (looked up, limits assumed): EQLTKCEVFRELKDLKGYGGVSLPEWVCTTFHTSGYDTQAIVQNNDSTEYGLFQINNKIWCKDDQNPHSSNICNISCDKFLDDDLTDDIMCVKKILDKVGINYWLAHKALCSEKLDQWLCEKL
Assay: fluorescence graphene oxide (GO) assay
Conditions: 50 mM Tris-HCl, 5 mM KCl, 100 mM NaCl, 1 mM MgCl2, pH 7.4; 100 nM FAM-aptamer, 0-400 ug/ml α-La, 1 h in the dark, then GO 15 min; commercial protein; label: 5'-FAM; single-stranded DNA

AGTAGCTCAGAGGTCAGATGGTGATGCGAA [MLA-1t]
binding result: binds more weakly
